Hit rate of the full screen: of about 330,000 compounds, about 7,700 (2.3%) were called active. The inconclusive results got no clear call from the source; some entries with a clear call stand among them for comparison. Calls follow the shape of the dose curve; as a rule, active = well fitted inhibition curve with a large enough effect; inconclusive = small, poorly fitted or top-dose-only effect, or effect the other way; inactive = flat fitted curve, though single readings scatter. Where the call is inconclusive, the potency comes from a doubtful curve fit. Residues, ends and D or L forms follow the SMILES beside them. *: point of attachment. Boc = CC(C)(C)OC(=O)*
Test: qHTS screen for small molecules that inhibit ELG1-dependent DNA repair in human embryonic kidney (HEK293T) cells expressing luciferase-tagged ELG1; also: nearly all actives have a fitted effect of over 55% in size
Details: HEK293T ELG1-luciferase reporter, luminescence, 16 h, DNA damage induced by 5-fluorouridine; activity change, negative = inhibition: at 46.1 µM (top of the series)
Method in brief: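 Overnight (16 hr) co-exposure of 2,000 cells/well to 5-fluorouridine and compound at 37 °C preceded detection. Luciferase was quantified via ONE-Glo luminescence; loss of signal denotes inhibition.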
% is scaled to controls: 0 for no effect and ±100 for the full control effect; potency is read from the fitted curve at half-maximal effect.

Row | Compound | activity change, negative = inhibition | Potency
1 | C=CCOc1ccccc1CNc1cccc(F)c1 | inactive: 13.7% | 
2 | C#CCOc1ccccc1/C=N/NC(=O)c1ccccc1OCc1ccccc1 |  | inconclusive: 29.1 µM [inhibitor, single point]
3 | Cc1ccc(OCC(=O)NNC(=O)c2ccc3c(=O)n4c(nc3c2)CCC4)cc1 | inactive: 22.1% | 
4 | CCOc1cc(/C=N/Nc2nc(-c3cccs3)c(NC(C)=O)s2)ccc1O |  | inconclusive: 13 µM [inhibitor, partial curve, poor fit]
5 | CC(=C/c1ccco1)/C=N/NC(=O)Cc1cccn1C |  | inconclusive: 16.4 µM [activator, single point]
6 | CCOC(=O)CCCc1sc(N)nc1-c1[nH]c(=O)[nH]c1C |  | inconclusive: 11.6 µM [activator, partial curve, poor fit]
7 | Cc1ccc(/C=N/n2cnc3sc4c(c3c2=O)CCCC4)o1 | inactive: 1.63% | 
8 | O=C(c1ccc2c(c1)OCO2)N1CCN(c2ccccc2F)CC1 |  | inconclusive: 18.4 µM [activator, partial curve, poor fit]
9 | COc1cc(/C=C(\C(=O)O)c2ccc(S(=O)(=O)N3CCCC3)s2)cc(OC)c1 |  | inconclusive: 6.51 µM [activator, full curve, poor fit]
10 | O=C(Nc1nc(-c2cc(Cl)sc2Cl)cs1)c1ccc(Br)s1 | inactive: 0% | 
11 | Cc1cc(N2CCN(C)CC2)n2cc(-c3ccc(F)cc3)nc2n1 | inactive: 2.41% | 
12 | COc1ccccc1CNC(=O)c1cc(C(=O)CC(C)C)c[nH]1 | inactive: -6.23% | 
13 | COc1ccc(C)cc1S(=O)(=O)NC1CCCCC1C (stereo not given) | inactive: 4.77% | 
14 | O=C(CC1SC(=Nc2ccccc2)N(Cc2ccccn2)C1=O)Nc1cccc(Cl)c1 (stereo not given) |  | inconclusive: 29.1 µM [inhibitor, single point]
15 | Cc1ccc2nc(C3CCCN(C(=O)NCc4ccccc4)C3)[nH]c2c1 (stereo not given) |  | inconclusive: 16.4 µM [activator, partial curve, poor fit]
16 | O=C(C1CCCN(c2ncnc3c2nc2n3CCCCC2)C1)N1CCN(c2ccc(Cl)cc2)CC1 (stereo not given) |  | inconclusive: 9.2 µM [inhibitor, partial curve, poor fit]
17 | CN1/C(=N\O)c2cccc3cccc1c23 |  | inconclusive: 14.6 µM [inhibitor, partial curve, poor fit]
18 | CCOc1ccc(-n2cc(C(=O)NCc3ccco3)c3cc(OC)c(OC)cc3c2=O)cc1 |  | inconclusive: 29.1 µM [inhibitor, single point]
19 | O=C(Nc1ncc(S(=O)(=O)c2ccc([N+](=O)[O-])cc2)s1)c1ccccc1F |  | inconclusive: 9.2 µM [inhibitor, partial curve]
20 | O=C(Nc1ccc(F)cc1)Nc1ccc(Cl)cn1 |  | inconclusive: 7.31 µM [activator, partial curve]
21 | O=C(Nc1cccnc1)C1(c2ccc(Cl)cc2)CCCC1 |  | inconclusive: 20.6 µM [inhibitor, partial curve, poor fit]
22 | CC1=N/C(=C\c2ccc(OC(C)C)cc2)C(=O)N1c1ccc(C(=O)O)cc1 | inactive: 0.103% | 
23 | COC(=O)c1sccc1Oc1c(Cl)cccc1[N+](=O)[O-] | inactive: -1.01% | 
24 | Cc1cc(C)n2nc(C(=O)OCC(=O)NCc3ccc(Cl)cc3)nc2n1 | inactive: 13.2% | 

Row | Compound | activity change, negative = inhibition | Potency
25 | Cc1cc(=O)n(CCc2ccccc2)c(O)c1C#N |  | inconclusive: 14.6 µM [activator, single point]
26 | Cc1cc(C)n(-c2nc(NCCN(C)C)c3c4c(sc3n2)COC(C)(C)C4)n1 |  | inconclusive: 25.9 µM [activator, partial curve, poor fit]
27 | CCC(C)(C)C1CCc2[nH]nc(C(=O)N/N=C(\C)c3ccco3)c2C1 (stereo not given) |  | inconclusive: 2.31 µM [activator, full curve]
28 | COc1ccc(C(=O)OCC(=O)N(C)C2CCS(=O)(=O)C2)cc1Br (stereo not given) |  | inconclusive: 16.4 µM [activator, partial curve]
29 | Cc1nc(C)n(CC(C)C(=O)N2CCN(S(=O)(=O)c3ccc(Cl)cc3)CC2)n1 (stereo not given) | inactive: -3.05% | 
30 | CCOc1ccc(N2CC(C(=O)NCCN3C(=O)S/C(=C\c4ccc(OC)c(OC)c4)C3=O)CC2=O)cc1 (stereo not given) |  | inconclusive: 29.1 µM [inhibitor, single point]
31 | CC1CCN(C(=O)CN2C(=O)c3ccccc3S2(=O)=O)CC1 |  | inconclusive: 23.1 µM [activator, partial curve]
32 | COC(=O)c1ccc2c(=O)n(CCN3CCOCC3)c(SCC(=O)C(C)(C)C)nc2c1 |  | inconclusive: 15.8 µM [inhibitor, single point]
33 | COc1ccc(CC(=O)Nc2ccc(-c3cn4ccc(C)cc4n3)cc2)cc1 |  | inconclusive: 16.4 µM [activator, partial curve]
34 | C=CCn1c(SCC(=O)Nc2ccccc2C)nc2sc(C)c(C)c2c1=O | inactive: -12% | 
35 | Cc1ccc(SC[C@H](Cc2ccccc2)N2CC[C@@H](C)CCC2=O)cc1 | inactive: -11.1% | 
36 | CCC(C(=O)OCC(=O)NC1CCS(=O)(=O)C1)c1ccccc1 (stereo not given) |  | inconclusive: 1.83 µM [activator, partial curve, poor fit]
37 | CCCN(CCC)C(=O)c1ccc2nc(-c3ccc(OC)c(OC)c3)c(-c3ccc(OC)c(OC)c3)nc2c1 |  | active: 11.6 µM
38 | O=C(NCc1ccc2c(c1)OCO2)c1cc2n(n1)C(C(F)(F)F)CC(c1ccc3c(c1)OCO3)N2 (stereo not given) |  | inconclusive: 22.4 µM [inhibitor, single point]
39 | CC1(C)CC(CCNC(=O)CCl)(c2ccccc2)CCO1 (stereo not given) |  | inconclusive: 14.6 µM [inhibitor, single point]
40 | O=C(O)CN1C(=O)c2ccc(C(=O)c3ccccc3)cc2C1=O | inactive: 30% | 
41 | CSCCC(NC(=O)OC(C)(C)C)C(=O)NC(CC(C)C)C(N)=O (stereo not drawn) (Boc-Met-Leu-NH2; configuration not given here) |  | inconclusive: 29.1 µM [activator, partial curve, poor fit]
42 | CC(C)N(C(=O)CSc1nc2ccccc2n1Cc1ccc(F)cc1)C(C)C |  | active: 18.4 µM
43 | CCCC/C(O)=C1\C(=O)CC(C)(C)CC1=Nc1ccccc1OC | inactive: -26.1% | 
44 | O=C(C1CCN(S(=O)(=O)c2cccc3cccnc23)CC1)N1CCN(c2ccc(Cl)cc2)CC1 |  | active: 18.4 µM
45 | COc1ccc(-c2csc3ncnc(N4CCN(S(=O)(=O)c5ccc(C)c(C)c5)CC4)c23)cc1 |  | inconclusive: 16.4 µM [inhibitor, single point]
46 | Cn1cccc1CC(=O)NNC(=S)Nc1ccc(Cl)cc1 | inactive: 1.29% | 
47 | COc1ccc(Nc2ncnc3ccccc23)c(OC)c1 | inactive: -6.72% | 
48 | Cc1nn(-c2ccccc2)c(Cl)c1C(=O)NCC(C)c1ccccc1 (stereo not given) |  | inconclusive: 8.2 µM [activator, partial curve, poor fit]

13 structures from above, arranged by count of non-hydrogen atoms, ascending.
Row | Compound | activity change, negative = inhibition | Potency
1 | C=CCOc1ccccc1CNc1cccc(F)c1 | inactive: 13.7% | 
23 | COC(=O)c1sccc1Oc1c(Cl)cccc1[N+](=O)[O-] | inactive: -1.01% | 
39 | CC1(C)CC(CCNC(=O)CCl)(c2ccccc2)CCO1 (stereo not given) |  | inconclusive: 14.6 µM [inhibitor, single point]
31 | CC1CCN(C(=O)CN2C(=O)c3ccccc3S2(=O)=O)CC1 |  | inconclusive: 23.1 µM [activator, partial curve]
40 | O=C(O)CN1C(=O)c2ccc(C(=O)c3ccccc3)cc2C1=O | inactive: 30% | 
28 | COc1ccc(C(=O)OCC(=O)N(C)C2CCS(=O)(=O)C2)cc1Br (stereo not given) |  | inconclusive: 16.4 µM [activator, partial curve]
24 | Cc1cc(C)n2nc(C(=O)OCC(=O)NCc3ccc(Cl)cc3)nc2n1 | inactive: 13.2% | 
22 | CC1=N/C(=C\c2ccc(OC(C)C)cc2)C(=O)N1c1ccc(C(=O)O)cc1 | inactive: 0.103% | 
42 | CC(C)N(C(=O)CSc1nc2ccccc2n1Cc1ccc(F)cc1)C(C)C |  | active: 18.4 µM
2 | C#CCOc1ccccc1/C=N/NC(=O)c1ccccc1OCc1ccccc1 |  | inconclusive: 29.1 µM [inhibitor, single point]
18 | CCOc1ccc(-n2cc(C(=O)NCc3ccco3)c3cc(OC)c(OC)cc3c2=O)cc1 |  | inconclusive: 29.1 µM [inhibitor, single point]
44 | O=C(C1CCN(S(=O)(=O)c2cccc3cccnc23)CC1)N1CCN(c2ccc(Cl)cc2)CC1 |  | active: 18.4 µM
37 | CCCN(CCC)C(=O)c1ccc2nc(-c3ccc(OC)c(OC)c3)c(-c3ccc(OC)c(OC)c3)nc2c1 |  | active: 11.6 µM

The list goes on.

Row | Compound | activity change, negative = inhibition | Potency
49 | O=S(=O)(c1ccc(Br)cc1)N1CCCc2ccccc21 | inactive: -17% | 
50 | CCOC(=O)C1CCN(C(=O)c2ccc3snnc3c2)CC1 |  | inconclusive: 23.1 µM [activator, partial curve, poor fit]
51 | Cc1occc1-c1nnc(SCC(=O)N2CCN(c3ccccc3)CC2)n1C |  | inconclusive: 29.1 µM [inhibitor, single point]
52 | C=C1CCN([C@@H](C)C(=O)NCc2cc(OC)c(OC)c(OC)c2)S(=O)(=O)c2ccccc21 | inactive: -1.34% | 
53 | CCCCn1c(-c2ccco2)n[nH]c1=S | inactive: 16% | 
54 | CSc1nc(=NC(C)=O)ss1 |  | inconclusive: 0.794 µM [inhibitor, full curve, poor fit]
55 | Cc1ccc(C(=O)N2CCN(Cc3ccc4c(c3)OCO4)CC2)o1 | inactive: -2.51% | 
56 | O=C(COc1ccc(Cl)cc1)N1CCN(S(=O)(=O)c2ccc(Cl)cc2)CC1 |  | inconclusive: 25.9 µM [inhibitor, single point]
57 | CC1(C)Cc2ccccc2/C(=C/C(=O)N2CCCCCC2)N1 | inactive: -0.0626% | 
58 | C=CCNC(=O)C1CC2Cn3c(nc4cc(C)c(C)cc43)C2N1C (stereo not given) |  | inconclusive: 18.3 µM [activator, partial curve]
59 | Cc1cccc(Cn2c(=O)c3c(nc4n3CCN4Cc3ccco3)n(C)c2=O)c1 |  | active: 20.6 µM
60 | Cc1cc(C)c(S(=O)(=O)/N=C2\C=CC(=O)C(Cl)=C2)c(C)c1 | inactive: 4.04% | 
61 | CCOC(=O)C1CCCN(C(=O)CCCOc2cc(=O)n(C)c3ccccc23)C1 (stereo not given) |  | inconclusive: 25.9 µM [activator, single point]
62 | N#C/C(=C\c1ccc[nH]1)C(=O)c1ccccc1 |  | inconclusive: 32.6 µM [activator, single point]
63 | CCN(CC(=O)NCc1cccs1)c1ccc(S(=O)(=O)N2CCOCC2)cn1 | inactive: 1.98% | 
64 | CC(C)NC(=S)N1CCN(c2ncccn2)CC1 |  | inconclusive: 3.26 µM [inhibitor, partial curve, poor fit]
65 | O=C(N/N=C/c1c(O)ccc2ccccc12)c1ccc(Br)o1 |  | inconclusive: 4.11 µM [inhibitor, single point]
66 | CC1CC(C)CN(C(=O)CSc2nnc3ccccn23)C1 (stereo not given) |  | inconclusive: 23.1 µM [activator, partial curve, poor fit]
67 | COc1ccc(N2CCN(C(=O)CSc3nc4cc(OC)c(OC)cc4cc3C#N)CC2)cc1 |  | inconclusive: 7.31 µM [inhibitor, partial curve, poor fit]
68 | COc1ccc(/C=N/NC(=O)c2nc(Cl)c(Cl)c(N)c2Cl)cc1COc1ccccc1F |  | inconclusive: 20.6 µM [inhibitor, partial curve, poor fit]
69 | COC(=O)c1cn(NC(=O)Cc2ccc(Cl)cc2)c(=O)c2ccccc12 | inactive: -7.65% | 
70 | O=C(NC1CCCCC1)N1CCc2ccccc21 |  | inconclusive: 20.6 µM [activator, partial curve]

Reference: PubChem BioAssay AID504467 (National Center for Advancing Translational Sciences (NCATS), 2011)
